These are yes or no findings as the source states them, for the method shown. Some results given as binding are weak or reduced against the parent protein; the word gives no strength.

This assay addresses His-tagged recombinant monkey (Cynomolgus monkey, or Macaca fascicularis) IL2RA protein (Sino Biological, Inc., Cat#: 90265-C08H) (Cynomolgus monkey (Macaca fascicularis)). Nature of the assay: SPR (Biacore 8K), antibody captured on Protein A chip, His-tagged IL2RA as analyte.

B1: anti-IL2RA antibody 7B5 (antibody, V domains shown)
VH: EVQLQQWGAGLLKPSETLSLTCAVYGGSFSGYYWNWIRQPPGKGLEWIGESDHSGSTHFNPSLKSRVTISLDTSKNQFSLKLNSVTAADTAVYFCARAPDYGDFDHWGQGILVTVSS
VL: DIQMTQSPDSLAVSLGERATINCRSSQSVLHSSTNKRYLAWYQQKPRQPPKLLIYWTSTRESGVPDRFSGSGSGTDFTLTISSLQAEDVAVYFCQQYYSTPYTFGQGTKLEIK
As to B1, the binding result is “binds”.

B2: anti-IL2RA antibody 5D9 (antibody, V domains shown)
VH: EVQLVESGGGLVQPGGSLRLSCAASGFTVSSNYMSWVRQTPGKGLELVSFIYSGGITSYADSVRGRFTISRDNSKNTLYLQMNSLRAEDTAVYYCARDDYSNYFDYWGQGTLVTVSS
VL: DIQMTQSPSSVSASVGDRVTITCRASQGISNWLAWYQQKPGKAPKLLIFAASSLQSGVPSRFSGSGSGTDFTLTISSLQPEDFATYYCQQAKSFPITFGQGTRLEIK
Consider B2, for which the binding result was “binds”.

The values are drawn from patent EP4669671A1.
